According to US20130071854A1, “METHODS FOR THE IDENTIFICATION AND CHARACTERIZATION OF HDAC INTERACTING COMPOUNDS” (priority 2009, published 2013):
Where two headings read alike, the source gives them in different places.

Assays:
MIER1 = assay: Chemoproteomic binding profiling, K562 cell extract, SAHA/ITF2357 probe matrix (Kd app), ELSA (ELM-SANT) domain protein; set-up: species or system human; settings: ELSA (ELM-SANT) domain proteins
TBL1X = settings: K-562 cell lysate
MIER3 = assay: Chemoproteomic binding profiling, K562 cell extract, SAHA/ITF2357 probe matrix (Kd app), ELSA (ELM-SANT) domain protein; set-up: species or system human; settings: ELSA (ELM-SANT) domain proteins
EHMT2 = assay: Chemoproteomic binding profiling, K562 cell extract, SAHA/ITF2357 probe matrix (Kd app), ELSA (ELM-SANT) domain proteins group; set-up: species or system human; settings: protein EHMT2

Work on `O=C(CCCCCCC(=O)Nc1ccccc1)NO` [SAHA, suberoylanilide hydroxamic acid] yielded an IC50 (TBL1XR1; K-562 cell lysate) of 0.29 µM, an IC50 (TBL1XR1; mix of Jurkat and Ramos cell lysates) of 0.22 µM and a Kd (MIER1) of 0.11 µM. The IC50 (TBL1X) was 0.29 µM, the Kd (MIER3) was 0.05 µM and the Kd (EHMT2) was 0.54 µM.
